# ± gives the standard deviation of the averaged measurements. The entries are a selection whose mix differs from that of the whole data set.
# The chains behind the UniProt entries cited, without tags or fusion partners. Where a name states a change or a piece, a line headed by the entry shows the natural chain unless it says otherwise.
# UniProt Q9NZJ5: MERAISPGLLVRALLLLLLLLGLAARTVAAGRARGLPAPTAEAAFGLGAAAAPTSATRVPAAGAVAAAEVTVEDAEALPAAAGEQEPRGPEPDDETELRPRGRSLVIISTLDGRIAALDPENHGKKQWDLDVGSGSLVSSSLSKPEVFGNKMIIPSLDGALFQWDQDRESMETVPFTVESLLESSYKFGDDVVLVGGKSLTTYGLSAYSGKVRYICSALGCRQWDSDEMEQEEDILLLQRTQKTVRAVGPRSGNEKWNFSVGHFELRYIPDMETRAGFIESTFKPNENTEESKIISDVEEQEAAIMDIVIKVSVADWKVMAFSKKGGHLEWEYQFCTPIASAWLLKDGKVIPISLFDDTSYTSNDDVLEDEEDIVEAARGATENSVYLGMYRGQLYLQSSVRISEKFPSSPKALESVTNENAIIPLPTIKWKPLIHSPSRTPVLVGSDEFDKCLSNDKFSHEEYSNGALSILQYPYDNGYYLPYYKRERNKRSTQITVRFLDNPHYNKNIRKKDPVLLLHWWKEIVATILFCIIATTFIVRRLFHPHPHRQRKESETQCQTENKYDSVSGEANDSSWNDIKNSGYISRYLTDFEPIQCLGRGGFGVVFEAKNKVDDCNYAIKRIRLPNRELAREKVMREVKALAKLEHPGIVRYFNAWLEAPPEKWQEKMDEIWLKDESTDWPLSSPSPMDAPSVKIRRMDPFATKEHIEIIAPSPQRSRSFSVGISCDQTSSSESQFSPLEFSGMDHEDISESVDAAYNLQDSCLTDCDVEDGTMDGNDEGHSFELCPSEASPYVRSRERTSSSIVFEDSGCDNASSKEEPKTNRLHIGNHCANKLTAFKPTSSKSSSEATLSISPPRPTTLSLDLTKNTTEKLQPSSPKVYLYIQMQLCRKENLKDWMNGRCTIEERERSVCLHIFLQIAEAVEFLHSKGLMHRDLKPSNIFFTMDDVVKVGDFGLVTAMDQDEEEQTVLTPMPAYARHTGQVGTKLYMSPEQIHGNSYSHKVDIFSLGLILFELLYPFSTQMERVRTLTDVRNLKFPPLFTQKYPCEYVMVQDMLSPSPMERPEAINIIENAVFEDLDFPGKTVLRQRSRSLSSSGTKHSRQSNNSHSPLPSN
# UniProt O95861: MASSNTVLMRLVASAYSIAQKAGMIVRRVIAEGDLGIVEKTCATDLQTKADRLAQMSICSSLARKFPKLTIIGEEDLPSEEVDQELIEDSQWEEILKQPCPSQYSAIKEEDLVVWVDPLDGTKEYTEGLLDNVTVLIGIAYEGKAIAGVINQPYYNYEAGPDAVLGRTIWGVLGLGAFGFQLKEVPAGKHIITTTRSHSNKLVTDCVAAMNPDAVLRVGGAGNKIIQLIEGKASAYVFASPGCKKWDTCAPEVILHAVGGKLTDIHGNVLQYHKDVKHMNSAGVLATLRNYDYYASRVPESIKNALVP
# UniProt Q5XKP0: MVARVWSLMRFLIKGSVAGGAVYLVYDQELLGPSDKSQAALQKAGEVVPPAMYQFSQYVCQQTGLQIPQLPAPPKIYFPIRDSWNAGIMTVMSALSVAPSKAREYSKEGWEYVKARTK
# UniProt P35222, whole entry: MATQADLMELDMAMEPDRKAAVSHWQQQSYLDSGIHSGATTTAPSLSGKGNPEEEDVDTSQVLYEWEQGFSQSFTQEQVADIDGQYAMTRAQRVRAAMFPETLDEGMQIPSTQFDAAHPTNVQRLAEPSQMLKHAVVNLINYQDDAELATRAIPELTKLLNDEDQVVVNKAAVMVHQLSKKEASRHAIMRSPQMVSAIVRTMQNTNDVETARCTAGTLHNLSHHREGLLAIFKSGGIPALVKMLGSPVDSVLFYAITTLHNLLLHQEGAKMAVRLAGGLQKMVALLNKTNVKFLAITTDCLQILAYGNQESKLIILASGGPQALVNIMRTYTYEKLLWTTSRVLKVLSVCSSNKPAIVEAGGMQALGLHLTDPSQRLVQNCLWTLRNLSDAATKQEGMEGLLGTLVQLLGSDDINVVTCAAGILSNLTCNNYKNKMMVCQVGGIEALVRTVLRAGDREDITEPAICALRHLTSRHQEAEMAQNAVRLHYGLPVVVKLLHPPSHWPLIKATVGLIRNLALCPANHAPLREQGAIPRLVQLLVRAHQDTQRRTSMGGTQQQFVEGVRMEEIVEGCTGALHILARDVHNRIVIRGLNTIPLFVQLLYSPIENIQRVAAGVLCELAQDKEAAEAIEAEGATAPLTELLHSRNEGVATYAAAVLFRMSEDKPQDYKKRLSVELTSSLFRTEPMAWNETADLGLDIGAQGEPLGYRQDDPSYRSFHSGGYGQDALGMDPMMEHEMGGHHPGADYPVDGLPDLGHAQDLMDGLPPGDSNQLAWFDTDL
# UniProt Q9NRN9: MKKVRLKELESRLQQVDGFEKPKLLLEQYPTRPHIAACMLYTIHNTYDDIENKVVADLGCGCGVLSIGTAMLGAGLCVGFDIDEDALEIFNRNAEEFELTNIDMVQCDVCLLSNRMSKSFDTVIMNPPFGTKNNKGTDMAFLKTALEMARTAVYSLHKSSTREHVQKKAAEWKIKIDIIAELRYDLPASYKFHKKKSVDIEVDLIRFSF
# UniProt Q9Y519: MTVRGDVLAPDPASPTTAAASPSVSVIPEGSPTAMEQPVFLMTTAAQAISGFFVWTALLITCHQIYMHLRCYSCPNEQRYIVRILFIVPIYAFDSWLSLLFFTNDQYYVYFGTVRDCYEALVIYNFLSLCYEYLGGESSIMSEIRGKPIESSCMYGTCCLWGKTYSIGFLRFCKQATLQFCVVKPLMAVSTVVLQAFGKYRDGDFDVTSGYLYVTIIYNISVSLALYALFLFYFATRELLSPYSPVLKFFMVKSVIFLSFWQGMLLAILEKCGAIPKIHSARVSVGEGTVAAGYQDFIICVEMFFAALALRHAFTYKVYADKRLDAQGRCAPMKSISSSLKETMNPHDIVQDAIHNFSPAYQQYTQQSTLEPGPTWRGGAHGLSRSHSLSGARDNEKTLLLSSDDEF
# UniProt Q96GQ7: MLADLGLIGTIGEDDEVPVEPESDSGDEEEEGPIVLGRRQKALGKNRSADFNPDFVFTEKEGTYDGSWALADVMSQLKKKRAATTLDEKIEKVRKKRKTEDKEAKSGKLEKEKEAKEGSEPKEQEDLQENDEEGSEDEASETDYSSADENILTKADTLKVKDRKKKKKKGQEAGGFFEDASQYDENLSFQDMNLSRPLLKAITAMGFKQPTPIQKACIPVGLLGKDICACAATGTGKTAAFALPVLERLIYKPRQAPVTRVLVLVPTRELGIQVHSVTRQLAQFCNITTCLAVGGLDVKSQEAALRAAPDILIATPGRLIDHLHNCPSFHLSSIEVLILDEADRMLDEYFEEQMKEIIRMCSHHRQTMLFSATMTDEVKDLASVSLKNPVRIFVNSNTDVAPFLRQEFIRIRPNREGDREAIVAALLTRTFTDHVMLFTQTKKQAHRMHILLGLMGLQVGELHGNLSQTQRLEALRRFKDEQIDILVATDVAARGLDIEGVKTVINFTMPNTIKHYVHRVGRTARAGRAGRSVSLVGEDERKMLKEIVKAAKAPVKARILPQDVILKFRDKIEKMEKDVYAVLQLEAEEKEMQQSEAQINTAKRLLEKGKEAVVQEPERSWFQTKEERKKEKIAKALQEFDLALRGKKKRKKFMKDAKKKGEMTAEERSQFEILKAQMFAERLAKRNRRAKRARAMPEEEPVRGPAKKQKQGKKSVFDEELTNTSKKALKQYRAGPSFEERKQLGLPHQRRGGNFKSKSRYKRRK
# UniProt P63165, whole entry: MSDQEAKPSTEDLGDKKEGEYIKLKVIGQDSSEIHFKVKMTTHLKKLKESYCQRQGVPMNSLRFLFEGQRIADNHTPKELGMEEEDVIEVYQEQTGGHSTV
# UniProt Q7Z6J8: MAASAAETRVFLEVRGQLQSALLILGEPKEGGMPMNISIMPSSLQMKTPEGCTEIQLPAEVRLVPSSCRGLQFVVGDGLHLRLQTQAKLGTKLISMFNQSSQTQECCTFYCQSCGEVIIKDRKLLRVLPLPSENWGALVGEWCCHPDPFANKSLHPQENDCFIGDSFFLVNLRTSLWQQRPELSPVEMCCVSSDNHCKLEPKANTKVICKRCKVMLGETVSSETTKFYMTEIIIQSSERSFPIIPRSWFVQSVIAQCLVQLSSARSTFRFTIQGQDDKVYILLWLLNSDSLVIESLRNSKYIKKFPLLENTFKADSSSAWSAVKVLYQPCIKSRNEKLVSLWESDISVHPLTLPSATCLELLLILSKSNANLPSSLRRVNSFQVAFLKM
# UniProt Q6NYC8: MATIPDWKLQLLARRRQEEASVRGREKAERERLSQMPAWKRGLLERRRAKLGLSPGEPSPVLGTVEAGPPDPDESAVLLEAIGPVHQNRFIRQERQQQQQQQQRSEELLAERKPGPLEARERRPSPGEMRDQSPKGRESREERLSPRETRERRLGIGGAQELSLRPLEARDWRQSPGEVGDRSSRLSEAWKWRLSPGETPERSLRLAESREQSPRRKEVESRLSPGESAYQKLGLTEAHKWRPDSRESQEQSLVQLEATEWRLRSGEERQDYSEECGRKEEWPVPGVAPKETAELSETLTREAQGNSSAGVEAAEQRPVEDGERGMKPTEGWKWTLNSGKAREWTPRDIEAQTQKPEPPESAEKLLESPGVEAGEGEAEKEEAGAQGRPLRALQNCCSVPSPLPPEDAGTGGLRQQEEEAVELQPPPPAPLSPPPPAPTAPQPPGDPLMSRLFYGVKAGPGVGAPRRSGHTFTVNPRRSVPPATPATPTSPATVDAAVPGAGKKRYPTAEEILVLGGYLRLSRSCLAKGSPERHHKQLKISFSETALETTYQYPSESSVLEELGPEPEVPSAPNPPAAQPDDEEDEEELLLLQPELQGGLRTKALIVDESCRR
# UniProt O43432, whole entry: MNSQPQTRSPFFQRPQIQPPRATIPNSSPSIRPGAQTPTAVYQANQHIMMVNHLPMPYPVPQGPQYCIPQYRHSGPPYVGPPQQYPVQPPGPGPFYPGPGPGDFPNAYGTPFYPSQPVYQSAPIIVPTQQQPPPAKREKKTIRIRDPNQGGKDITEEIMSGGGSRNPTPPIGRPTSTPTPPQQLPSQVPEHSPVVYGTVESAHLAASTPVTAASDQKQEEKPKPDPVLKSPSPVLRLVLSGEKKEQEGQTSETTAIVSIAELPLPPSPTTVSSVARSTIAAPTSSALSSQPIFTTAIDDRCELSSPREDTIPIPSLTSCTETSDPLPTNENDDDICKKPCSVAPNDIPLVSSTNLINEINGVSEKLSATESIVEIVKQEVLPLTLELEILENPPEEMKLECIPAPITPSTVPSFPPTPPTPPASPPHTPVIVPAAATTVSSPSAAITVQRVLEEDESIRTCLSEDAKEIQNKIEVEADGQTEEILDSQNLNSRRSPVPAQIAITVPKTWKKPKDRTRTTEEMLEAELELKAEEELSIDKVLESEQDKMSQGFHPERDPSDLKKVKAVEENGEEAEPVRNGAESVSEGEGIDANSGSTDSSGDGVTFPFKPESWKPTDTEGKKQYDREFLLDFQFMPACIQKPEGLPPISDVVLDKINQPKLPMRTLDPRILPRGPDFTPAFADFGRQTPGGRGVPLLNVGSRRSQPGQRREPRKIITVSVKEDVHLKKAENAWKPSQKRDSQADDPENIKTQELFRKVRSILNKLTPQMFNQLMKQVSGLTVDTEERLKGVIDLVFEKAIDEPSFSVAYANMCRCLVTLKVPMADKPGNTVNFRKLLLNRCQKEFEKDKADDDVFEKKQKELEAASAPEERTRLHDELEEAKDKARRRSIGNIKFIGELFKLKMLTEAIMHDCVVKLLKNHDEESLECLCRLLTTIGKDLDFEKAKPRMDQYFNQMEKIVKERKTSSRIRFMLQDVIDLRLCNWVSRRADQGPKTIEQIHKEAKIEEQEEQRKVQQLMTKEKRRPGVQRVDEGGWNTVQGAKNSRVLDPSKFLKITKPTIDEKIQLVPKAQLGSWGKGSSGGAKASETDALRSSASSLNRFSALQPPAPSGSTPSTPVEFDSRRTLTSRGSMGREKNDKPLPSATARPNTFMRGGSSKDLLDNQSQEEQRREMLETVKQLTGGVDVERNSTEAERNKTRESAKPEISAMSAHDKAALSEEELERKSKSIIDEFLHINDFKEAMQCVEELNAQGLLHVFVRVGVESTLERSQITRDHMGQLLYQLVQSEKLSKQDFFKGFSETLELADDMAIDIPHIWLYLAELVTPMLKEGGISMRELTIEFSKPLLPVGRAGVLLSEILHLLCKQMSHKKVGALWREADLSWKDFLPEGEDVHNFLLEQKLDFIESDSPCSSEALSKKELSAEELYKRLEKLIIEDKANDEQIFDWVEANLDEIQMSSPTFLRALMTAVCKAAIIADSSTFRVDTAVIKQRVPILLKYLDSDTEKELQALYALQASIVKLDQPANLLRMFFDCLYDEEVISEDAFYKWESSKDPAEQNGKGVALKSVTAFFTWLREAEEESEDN
# Compound: Nc1ncnc2c1ncn2[C@@H]1O[C@H](COP(=O)(O)OP(=O)(O)OP(=O)(O)O)[C@@H](O)[C@H]1O [adenosine triphosphate]
# Test: NP40-soluble protein abundance relative to vehicle (solubility fold change) (ratio); higher = more soluble protein in presence of ATP
# Outline: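 Data come from three independent experiments in which Dounce-homogenised Jurkat crude lysate was treated at eight concentrations from 0.1 to 10 mM. Treatment ran 10 min at room temperature and then 3 min at 37 °C, after which 0.8% NP40 and benzonase were added for 60 min at 4 °C before ultracentrifugation. The supernatant underwent TMT labelling and LC-MS/MS, and vsn-normalised intensities were expressed as fold change against the detergent-processed vehicle in each replicate.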
Target,NP40-soluble protein abundance (concentration: 1mM),NP40-soluble protein abundance (concentration: 2mM),NP40-soluble protein abundance (concentration: 4mM),NP40-soluble protein abundance (concentration: 6mM),NP40-soluble protein abundance (concentration: 8mM),NP40-soluble protein abundance (concentration: 10mM)
C9J185 and related entries (UniProt Q9NZJ5),1.02 ± 0.11,1.01 ± 0.048,1.04 ± 0.2,0.949 ± 0.081,1.02 ± 0.2,1.06 ± 0.064
A6NF51 and related entries (UniProt O95861),0.925 ± 0.043,0.948 ± 0.0097,0.9148 ± 0.0054,0.887 ± 0.045,0.891 ± 0.019,0.923 ± 0.017
A0A140TA86|Q5XKP0 (UniProt Q5XKP0),0.962 ± 0.04,0.878 ± 0.03,0.913 ± 0.039,0.957 ± 0.019,0.929 ± 0.025,0.859 ± 0.043
A9UF01 and related entries (UniProt P11274),1.01 ± 0.08,1 ± 0.068,0.993 ± 0.068,0.984 ± 0.086,0.983 ± 0.081,1 ± 0.093
B4DGU4 and related entries (UniProt P35222),1.01 ± 0.079,1.02 ± 0.055,1.03 ± 0.039,0.964 ± 0.11,0.978 ± 0.033,1.01 ± 0.062
B8ZZC8 and related entries (UniProt Q9NRN9),1.02 ± 0.04,1.02 ± 0.048,1.03 ± 0.052,1.01 ± 0.084,1.04 ± 0.041,1.04 ± 0.055
A0A0J9YYJ3|Q9Y519 (UniProt Q9Y519),0.892 ± 0.12,0.897 ± 0.05,0.903 ± 0.1,0.945 ± 0.14,0.956 ± 0.038,0.894 ± 0.049
B7Z6D5 and related entries (UniProt Q96GQ7),1.08 ± 0.053,1.16 ± 0.06,1.24 ± 0.087,1.26 ± 0.057,1.31 ± 0.09,1.4 ± 0.1
B8ZZN6 and related entries (UniProt P63165),0.882 ± 0.088,0.866 ± 0.094,0.842 ± 0.062,0.923 ± 0.1,0.871 ± 0.01,0.806 ± 0.091
D6RD24 and related entries (UniProt Q7Z6J8),0.931 ± 0.082,0.973 ± 0.13,1.02 ± 0.11,1.01 ± 0.14,0.971 ± 0.12,0.991 ± 0.069
A0A140T9T7|Q03518 (UniProt Q03518),1.01 ± 0.034,0.977 ± 0.036,0.971 ± 0.023,1.01 ± 0.067,0.996 ± 0.041,0.987 ± 0.028
MEX3A (UniProt A1L020),1.03 ± 0.15,1.04 ± 0.11,1.06 ± 0.11,1.04 ± 0.084,1.06 ± 0.14,0.985 ± 0.07
A0A0G2JHC2|Q6NYC8 (UniProt Q6NYC8),0.942 ± 0.058,0.94 ± 0.032,0.979 ± 0.022,1.02 ± 0.037,0.993 ± 0.015,1 ± 0.019
A0A0U1RQK7 (UniProt O43432),1.04 ± 0.013,1.03 ± 0.032,1.03 ± 0.019,1.07 ± 0.019,1.024 ± 0.0091,1.04 ± 0.03
D6R9Q7 and related entries (UniProt Q8NBW4),0.926 ± 0.04,0.945 ± 0.022,1.01 ± 0.032,1.03 ± 0.051,0.899 ± 0.057,0.915 ± 0.052

# Part of the list above, tab-delimited:
Target	NP40-soluble protein abundance (concentration: 1mM)	NP40-soluble protein abundance (concentration: 2mM)	NP40-soluble protein abundance (concentration: 4mM)	NP40-soluble protein abundance (concentration: 6mM)	NP40-soluble protein abundance (concentration: 8mM)	NP40-soluble protein abundance (concentration: 10mM)
MEX3A (UniProt A1L020)	1.03 ± 0.15	1.04 ± 0.11	1.06 ± 0.11	1.04 ± 0.084	1.06 ± 0.14	0.985 ± 0.07
A0A0G2JHC2|Q6NYC8 (UniProt Q6NYC8)	0.942 ± 0.058	0.94 ± 0.032	0.979 ± 0.022	1.02 ± 0.037	0.993 ± 0.015	1 ± 0.019
A0A0U1RQK7 (UniProt O43432)	1.04 ± 0.013	1.03 ± 0.032	1.03 ± 0.019	1.07 ± 0.019	1.024 ± 0.0091	1.04 ± 0.03
D6R9Q7 and related entries (UniProt Q8NBW4)	0.926 ± 0.04	0.945 ± 0.022	1.01 ± 0.032	1.03 ± 0.051	0.899 ± 0.057	0.915 ± 0.052

# Source: the supplement of paper PMC6411743
